The supplement of paper PMC8728848
Some of the results follow.

Key:
[1] = target: Neu5Gc(a2-8)Neu5Gc(a2-6)Gal(b1-4)GlcNAc; experiment: glycan array binding signal (z-score within array); higher = stronger binding; conditions: glycan notation: IUPAC condensed, linker removed
In short: (§1)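 Negative Z-scores can be read as non-binding. The Z-score is calculated within each array and then averaged across arrays of one protein sequence at different concentrations or buffers and across linkers. Arrays, 3228 in all, were curated from the Consortium for Functional Glycomics database and kept only where the protein sequence was available.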

[2] = target: Neu5Gc(b2-6)Gal(b1-4)GlcNAc; experiment: as above; conditions: glycan notation: IUPAC condensed, linker removed
In short: as §1

B1: FimA-N2 (Actinomyces oris) (protein)
chain: MHHHHHHSSGVDLGTENLYFQSNAWIYDVNVYPKNEAIDVDKTIQAQKLNGYGVGSLIKFPVESTAPTLDAKSFYKYFQLKDTLDERLSEVTATDVSLEGTPLQPTDYKVETKQQTVTVTFTAEGLKKIKAAPGKKVSAVFQGKVTKAGNGAITNRAQVISDTLYAEQPPTPETPPTDPENPPTSDEVISRWGDLSIKKVDTHQQGQTKA
glycan array binding signal (z-score) [1]: -1.78
glycan array binding signal (z-score) [2]: -0.336
